Results are given in words; binding and its absence hold for the method and conditions named. In cells and extracts the contact can be indirect. Some entries that bind do so weakly or less than the wild type. For some of these results: Where a sequence is shown, tags or fusion partners need not be part of it. Blank lines part the entries; values can stand above or below the binder they belong to.
Tests used:
[1] = target: T1, UCK1 (uridine-cytidine kinase 1), endogenous (human (endogenous in HEK293T, MV4-11, HL-60)) (UniProt Q9HA47); experiment: co-IP; endogenous proteins, MV4-11 extracts, immunoprecipitated with anti-UCK1 or anti-KLHL2 antibody
T1 sequence: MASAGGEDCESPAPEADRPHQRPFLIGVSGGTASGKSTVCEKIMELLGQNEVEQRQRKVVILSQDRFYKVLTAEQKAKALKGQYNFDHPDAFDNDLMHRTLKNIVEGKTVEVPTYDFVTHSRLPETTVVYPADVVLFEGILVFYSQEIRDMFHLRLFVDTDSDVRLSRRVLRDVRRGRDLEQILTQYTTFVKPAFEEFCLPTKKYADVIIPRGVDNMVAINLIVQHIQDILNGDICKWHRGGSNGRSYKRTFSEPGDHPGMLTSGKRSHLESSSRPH

[2] = target: T1, UCK1 (uridine-cytidine kinase 1), endogenous (human (endogenous in HEK293T, MV4-11, HL-60)); experiment: co-IP; endogenous proteins, HEK293T extracts, immunoprecipitated with anti-UCK1 or anti-KLHL2 antibody
[3] = target: T1, UCK1 (uridine-cytidine kinase 1), endogenous (human (endogenous in HEK293T, MV4-11, HL-60)); experiment: proximity ligation; Duolink In Situ Red Starter Kit Mouse/Rabbit; HL-60 cells with indicated treatment
Flag-UCK1-WT (human) = target: T2, Flag-UCK1-WT (human) (UniProt Q9HA47); experiment: co-IP; HL-60 cells transfected with vector, Flag-UCK1-WT or Flag-UCK1-S145A, 2 days later treated with or without 5'-AZA for 6 h; immunoprecipitation and immunoblotting
T2 sequence: T1 sequence

His-UCK1 (human) = target: T3, His-UCK1 (human) (UniProt Q9HA47); experiment: co-IP; HEK293T cells transiently transfected with His-UCK1 and GFP-KLHL2 for 48 hours; reciprocal immunoprecipitation, blots with His or GFP antibodies
T3 sequence: T1 sequence

[4] = target: T4, 23-220 amino acid (aa) fragment of GST-UCK1 (human) (UniProt Q9HA47); experiment: pull-down; GST-tagged fragments of UCK1 (and truncated KLHL2 fragments) tested against the other protein, immunoblot; Figure 1F
T4 sequence: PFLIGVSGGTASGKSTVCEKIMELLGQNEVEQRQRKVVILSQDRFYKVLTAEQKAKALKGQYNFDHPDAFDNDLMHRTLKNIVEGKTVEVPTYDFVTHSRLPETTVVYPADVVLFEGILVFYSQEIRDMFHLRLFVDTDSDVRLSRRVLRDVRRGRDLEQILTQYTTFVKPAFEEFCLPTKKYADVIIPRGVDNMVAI

[5] = target: T5, KLHL2, expressed from a plasmid in HEK293T cells (human) (UniProt O95198); experiment: co-IP; HEK293T cells expressing KLHL2, HA-UCK1 and Flag-USP28; immunoprecipitation with anti-KLHL2 antibody
T5 sequence: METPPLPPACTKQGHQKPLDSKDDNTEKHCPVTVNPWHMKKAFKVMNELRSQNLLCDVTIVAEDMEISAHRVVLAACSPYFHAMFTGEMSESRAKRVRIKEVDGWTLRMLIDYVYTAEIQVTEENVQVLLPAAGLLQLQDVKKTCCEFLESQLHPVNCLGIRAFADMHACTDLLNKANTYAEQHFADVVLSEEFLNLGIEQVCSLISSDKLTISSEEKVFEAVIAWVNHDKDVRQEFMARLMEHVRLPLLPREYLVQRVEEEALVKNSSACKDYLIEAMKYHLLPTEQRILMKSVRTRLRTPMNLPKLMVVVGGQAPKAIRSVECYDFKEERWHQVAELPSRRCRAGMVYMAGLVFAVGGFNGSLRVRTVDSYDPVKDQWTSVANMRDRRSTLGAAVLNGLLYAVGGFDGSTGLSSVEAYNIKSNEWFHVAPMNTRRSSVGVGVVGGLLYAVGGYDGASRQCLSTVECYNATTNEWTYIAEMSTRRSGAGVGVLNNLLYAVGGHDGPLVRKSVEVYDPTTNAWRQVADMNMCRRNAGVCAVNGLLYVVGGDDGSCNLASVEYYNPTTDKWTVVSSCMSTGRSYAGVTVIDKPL

B2: GFP-KLHL2 (protein, UniProt O95198 1-593)
chain: T5 sequence
- binding (His-UCK1 (human)): binds

B3: His-tagged KLHL2 protein (protein, UniProt O95198 1-593)
chain: T5 sequence
- binding [4]: binds

More lines, now with the values ahead:

- binding [1]: binds
- binding [2]: binds
- binding [3]: binds
- binding (Flag-UCK1-WT (human)): binds
B1: KLHL2 (Kelch Like Family Member 2), endogenous (protein, UniProt O95198 1-593)
chain: T5 sequence

- binding [5]: binds
B4: Recombinant GST-UCK1 protein (enzyme, human, UniProt Q9HA47 1-277, looked up)
chain: T1 sequence
notes: uridine-cytidine kinase 1 (UCK1), human; source: recombinant

Source: publication PMC6956814, “Deubiquitinase USP28 inhibits ubiquitin ligase KLHL2-mediated uridine-cytidine kinase 1 degradation and confers sensitivity to 5'-azacytidine-resistant human leukemia cells” (Theranostics, 2020)
